# Data reported in patent US20220152160A1, “DOSING REGIMEN” (Novo Nordisk A/S, priority 2013, published 2022).
# How the values were obtained:
# [1] = system: insulin-naïve participants with T2DM; test: Clinical Trial 1: daily insulin dose after 26 weeks of titration; assay type: in vivo, human
# Source text: This phase 3a, 26-week, randomized, controlled, open-label, multinational, treat-to-target, non-inferiority trial compared the efficacy and safety of IDeg U-200 (i.e. 200 U/mL) and IGlar (100 U/mL) both administered OD in combination with metformin (met) ±DPP-4 inhibitor in insulin-naïve participants with T2DM previously treated with oral antidiabetic drugs OAD(s), who qualified for intensification of treatment. The trial was open-label because the pen devices used to administer the basal insulins were distinctively different and blinding was, therefore, impossible.
# Using the interactive voice/web response system, eligible participants were randomized 1:1 to either once-daily IDeg U-200 (IDeg 200 U/mL, 3 mL FlexTouch®, Novo Nordisk, Bagsvård, Denmark) or once-daily IGlar (Lantus® 100 U/mL, 3 mL SoloStar® Sanofi Aventis U.S. LLC) and continued metformin ±DPP-4 inhibitor treatment. Trial participants were instructed to continue the same total daily dose of metformin and DPP-4 inhibitor treatment as before the start of the trial.
# Insulin degludec was administered once-daily with the main evening meal and, consistent with its product labelling, IGlar was administered once-daily (OD) at the same time each day. Either treatment was injected subcutaneously in the thigh, upper arm or abdomen. The starting dose for each was 10 U, and during the treatment period, the insulin dose was systematically titrated using a treat-to-target approach striving for a pre-breakfast self-measured plasma glucose (SMPG) level of 4.0-4.9 mmol/L (71-89 mg/dL). Both IDeg and IGlar were similarly titrated once weekly in 2 U increments. The treatment period was 26 weeks and doses were individually titrated in an effort to achieve the same glucose targets with both treatments.
# [2] = system: subjects with type 2 diabetes mellitus; test: Clinical Trial 2: daily insulin dose required at end of trial; assay type: in vivo, human; conditions: end of the trial; both arms
# Source text: This was a confirmatory 22-week, randomised (1:1), open labelled, stratified, multi-centre, two armed parallel group, treat-to-target, controlled trial comparing efficacy and safety of IDeg 200 U/mL with IDeg 100 U/mL, both in combination with pre-trial OAD treatment, in subjects with type 2 diabetes mellitus.
# During the trial treatment period the insulin dose was to be titrated once weekly by the investigator based upon the subject's SMPG levels and the Insulin Titration Guideline. The insulin dose adjustments were to aim at a pre-breakfast SMPG value between 4.0 and 5.0 mmol/L (71 and 90 mg/dL).
# The starting dose of trial insulin was to be based on a 1:1 transfer of the total daily pre-randomisation insulin therapy dose. No maximum insulin dose was specified.
substance,measurement,setting,value
NεB29-(Nα—(HOOC(CH2)14CO)-γ-Glu)des(B30)-human insulin [insulin degludec],mean ratio IDeg/IGlar of daily insulin dose (U),[1]; after 26 weeks of treatment,0.95
same,mean ratio IDeg/IGlar of daily insulin dose (U/kg),[1]; after 26 weeks of treatment,0.94
same,percentage of participants who required more than 80 U of insulin,[1]; end of trial,21.2%
same,percentage of participants who required more than 160 U of insulin daily,[1]; end of trial,0.9%
same,percentage of all subjects who required >160 U,[2],approximately 6%
same,percentage of all subjects who required a daily IDeg dose of >80 U,[2],approximately 38%
